# Reference: US20230121197A1, “ANTIBODIES SPECIFICALLY BINDING THE CARBOXYMETHYLATED CATALYTIC SUBUNIT OF PROTEIN PHOSPHATASE 2A” (Medizinische Universität Wien, priority 2020, published 2023)
# B1: 7C10-C5 monoclonal antibody (antibody, V domains shown)
# VH: DVQLQESGPGLVKPSQSLSLTCSVTGYSITSGYYWNWIRQFPGNKLEWMGYISYDGSNNYNPSLKNRISITRDTSKNQFFLKLNSVTTEDTATYYCAGRFAYWGQGTLVTVSA
# VL: DVLMTQTPLSLPVSLGDQASISCRSSQSIVHSNGNTYLEWYLQKPGQSPKLLIYKVSNRFSGVPDRFSGSGSGTDFTLKINRVEAEDLGVYYCFQGSHVPWTFGGGTKLEIK
# notes: Used as hybridoma culture supernatant (ELISA, Western blot, IHC) or at 50 µg/mL (SPR); also called 7C10 X63; clone 7C10-C5
# Molecular target: endogenous PPH21 (yeast (strain BY4741))
# Test: Western blot of yeast lysate (30 µg per lane), hybridoma supernatant 1:50, ECL, 60 min exposure
binder,measurement,value
B1,binding,binds

# Results are given in words; binding and its absence hold for the method and conditions named. Binding can be weak; no strength is given.
